Experimental data as given in patent US10227388B2, “Peptides and combination of peptides for use in immunotherapy against non-small cell lung cancer and other cancers” (immatics biotechnologies GmbH, priority 2015, dated 2019).

Tested on: HLA molecules of other tumor types, cell lines and normal tissues
Experiment: LC-MS detection of HLA-presented peptides on other tumor types, cell lines and normal tissues
Design: species or system human
Settings: for peptide detected on tumor samples (positive/measured): FIG. 1A-1D; for peptide found on tumor samples (positive/measured): FIG. 1E-1K
[1] = gallbladder and bile duct cancers

## KIFEMLEGV (listed as Homo sapiens) [SEQ ID NO.: 11]
Normal tissues, total
  number of samples with detectable presentation of the peptide: 3

## SLMEPPAVLLL (listed as Homo sapiens) [SEQ ID NO.: 1]
Brain cancers
  peptide detected on tumor samples (positive/measured): 1/29
Colorectal cancers
  peptide detected on tumor samples (positive/measured): 1/28
Esophageal cancers
  peptide detected on tumor samples (positive/measured): 2/17
Lung cancers
  peptide detected on tumor samples (positive/measured): 7/91
Renal cancers
  peptide detected on tumor samples (positive/measured): 1/22
Small cell lung cancers
  peptide detected on tumor samples (positive/measured): 2/15

## VMNDRLYAI (listed as Homo sapiens) [SEQ ID NO.: 587]
Normal tissue: spleen
  number of samples with detectable presentation of the peptide: 3
Normal tissues, total
  number of samples with detectable presentation of the peptide: 5

## 214 (FLLDLDPLLL; listed as Homo sapiens) [compound 214]
Additional tumor types on which the peptide was found: over-presentation on more than 5% of the measured tumor samples, or presentation on more than 5% with ratio of geometric means tumor vs normal tissues larger than 3
  Additional organs/cancerous diseases: Brain Cancer, CRC, CLL, Urinary Bladder Cancer

## VLVSDGVHSV (listed as Homo sapiens) [SEQ ID NO.: 6]
Brain cancers
  peptide detected on tumor samples (positive/measured): 10/29
  peptide found on tumor samples (positive/measured): 15/34
Breast cancers
  peptide found on tumor samples (positive/measured): 3/18
Esophageal cancers
  peptide detected on tumor samples (positive/measured): 3/17
  peptide found on tumor samples (positive/measured): 3/18
Head and neck cancers
  peptide found on tumor samples (positive/measured): 4/12
Kidney cancers
  peptide found on tumor samples (positive/measured): 1/23
Lung cancers
  peptide detected on tumor samples (positive/measured): 3/91
  peptide found on tumor samples (positive/measured): 6/107
Renal cancers
  peptide detected on tumor samples (positive/measured): 1/22
Skin cancers
  peptide found on tumor samples (positive/measured): 5/18
Small cell lung cancers
  peptide detected on tumor samples (positive/measured): 1/15
Urinary bladder cancers
  peptide found on tumor samples (positive/measured): 5/15
Uterus cancers
  peptide found on tumor samples (positive/measured): 3/16

## GLLRDEALAEV (listed as Homo sapiens) [SEQ ID NO.: 444]
Breast cancers
  peptide found on tumor samples (positive/measured): 2/18
Colon or rectum cancers
  peptide found on tumor samples (positive/measured): 3/29
Esophageal cancers
  peptide found on tumor samples (positive/measured): 1/18
Head and neck cancers
  peptide found on tumor samples (positive/measured): 1/12
Kidney cancers
  peptide found on tumor samples (positive/measured): 1/23
Leukocytic leukemia cancers
  peptide found on tumor samples (positive/measured): 2/17
Lung cancers
  peptide found on tumor samples (positive/measured): 9/107
Myeloid cells cancer
  peptide found on tumor samples (positive/measured): 1/18
Skin cancers
  peptide found on tumor samples (positive/measured): 2/18
Urinary bladder cancers
  peptide found on tumor samples (positive/measured): 2/15
Uterus cancers
  peptide found on tumor samples (positive/measured): 1/16

## ALLPLSPYL (listed as Homo sapiens) [SEQ ID NO.: 427]
Breast cancers
  peptide found on tumor samples (positive/measured): 9/18
Esophageal cancers
  peptide detected on tumor samples (positive/measured): 1/17
  peptide found on tumor samples (positive/measured): 2/18
[1]
  peptide found on tumor samples (positive/measured): 7/17
Head and neck cancers
  peptide found on tumor samples (positive/measured): 1/12
Liver cancers
  peptide detected on tumor samples (positive/measured): 4/16
  peptide found on tumor samples (positive/measured): 7/21
Lung cancers
  peptide detected on tumor samples (positive/measured): 19/91
  peptide found on tumor samples (positive/measured): 22/107
Pancreas cancers
  peptide found on tumor samples (positive/measured): 4/19
Pancreatic cancers
  peptide detected on tumor samples (positive/measured): 4/19
Prostate cancers
  peptide detected on tumor samples (positive/measured): 4/43
  peptide found on tumor samples (positive/measured): 4/87
Small cell lung cancers
  peptide detected on tumor samples (positive/measured): 1/15
Urinary bladder cancers
  peptide found on tumor samples (positive/measured): 2/15
Uterus cancers
  peptide found on tumor samples (positive/measured): 11/16

## SLNDEVPEV (listed as Homo sapiens) [SEQ ID NO.: 157]
Bile duct cancers
  peptide found on tumor samples (positive/measured): 1/17
Brain cancers
  peptide found on tumor samples (positive/measured): 5/34
Breast cancers
  peptide found on tumor samples (positive/measured): 1/18
Colon cancers
  peptide found on tumor samples (positive/measured): 1/29
Esophageal cancers
  peptide found on tumor samples (positive/measured): 2/18
Head and neck cancers
  peptide found on tumor samples (positive/measured): 1/12
Kidney cancers
  peptide found on tumor samples (positive/measured): 2/23
Liver cancers
  peptide found on tumor samples (positive/measured): 1/21
Lung cancers
  peptide found on tumor samples (positive/measured): 4/107
Skin cancers
  peptide found on tumor samples (positive/measured): 1/18
Urinary bladder cancers
  peptide found on tumor samples (positive/measured): 1/15
Uterus cancers
  peptide found on tumor samples (positive/measured): 1/16

## RLWEEGEELEL (listed as Homo sapiens) [SEQ ID NO.: 150]
Breast cancers
  peptide found on tumor samples (positive/measured): 1/18
Colon cancers
  peptide found on tumor samples (positive/measured): 1/29
Esophageal cancers
  peptide found on tumor samples (positive/measured): 2/18
[1]
  peptide found on tumor samples (positive/measured): 4/17
Head and neck cancers
  peptide found on tumor samples (positive/measured): 1/12
Lung cancers
  peptide found on tumor samples (positive/measured): 10/107
Skin cancers
  peptide found on tumor samples (positive/measured): 2/18
Uterus cancers
  peptide found on tumor samples (positive/measured): 1/16

## KLAEGLDIQL (listed as Homo sapiens) [SEQ ID NO.: 449]
Colon or rectum cancers
  peptide found on tumor samples (positive/measured): 3/29
Lung cancers
  peptide found on tumor samples (positive/measured): 6/107

## LLLDITPEI (listed as Homo sapiens) [SEQ ID NO.: 143]
Brain cancers
  peptide found on tumor samples (positive/measured): 2/34
Breast cancers
  peptide found on tumor samples (positive/measured): 4/18
Esophageal cancers
  peptide found on tumor samples (positive/measured): 2/18
Head and neck cancers
  peptide found on tumor samples (positive/measured): 1/12
Liver cancers
  peptide found on tumor samples (positive/measured): 2/21
Lung cancers
  peptide found on tumor samples (positive/measured): 6/107
Skin cancers
  peptide found on tumor samples (positive/measured): 2/18
Stomach cancers
  peptide found on tumor samples (positive/measured): 1/45
Urinary bladder cancers
  peptide found on tumor samples (positive/measured): 2/15
